# In US20230288403A1, “METHOD FOR INDUCING EXTRACELLULAR TRAP (ET) FORMATION” (Tridek-One Therapeutics, priority 2022, published 2023):
# At least one compound was matched to its structure with a doubt left.
# System: human peripheral blood neutrophils
# Assay: ROS formation with the oxidative-sensitive fluorescent probe CM-H2DCFDA, live cell imaging
# Format: cell-based
# Conditions: inhibitor 0.3 to 100 nM; plates coated with 100 μg/mL human polyvalent Ig; 3 hours
# Protocol: High-binding, sterile 96-well plates (Greiner Bio-One, Frickenhausen, Germany) were coated with human polyvalent Ig as described in Example 1, using a coating solution comprising human polyvalent Ig at a concentration ranging from 3 to 300 μg/mL, as indicated. If no indication is given, deposits of human polyvalent Ig were obtained with a coating solution comprising human polyvalent Ig at a concentration of 100 μg/mL.
# Where indicated, the SYK inhibitor BAY-61-3606, obtained from Selleckchem (reference: S7006), was added to the culture medium at a final concentration ranging from 0.05 to 5 (0.05, 0.1, 0.5, 1, 5 as indicated). Where indicated, the calcineurin inhibitor FK506 (also known as tacrolimus), obtained from ASTELLAS PHARMA (PROGRAF™ 5 mg/ml), was added to the culture medium at a final concentration ranging from 0.3 to 100 nM (0.3, 1, 3, 10, 30, 100 nM, as indicated). Where indicated, the humanized monoclonal antibody motavizumab directed against the respiratory syncytial virus (RSV), produced as a human IgG4 (by Evitria, Zurich, Switzerland), was added to the culture medium at a final concentration ranging from 1 to 100 μg/mL (1, 3, 10, 30, 100 μg/mL, as indicated). […]
# Time-lapse images were acquired by live cell fluorescent microscopy. Quantitative time-course measure of ROS and NET formation was performed by computer-assisted image analysis (data are expressed as GCU/well).
structure (smiles),measurement,value
C=CC[C@@H]1/C=C(\C)C[C@H](C)C[C@H](OC)[C@H]2O[C@@](O)(C(=O)C(=O)N3CCCC[C@H]3C(=O)O[C@H](/C(C)=C/[C@@H]3CC[C@@H](O)[C@H](OC)C3)[C@H](C)[C@@H](O)CC1=O)[C@H](C)C[C@@H]2OC [FK506],ROS production induced by immobilized human polyvalent Ig,modestly but consistently reduced
